Test [1] addresses T1, GST-tagged E. coli hinT H101N (E. coli) (UniProt P0ACE7).
T1 sequence: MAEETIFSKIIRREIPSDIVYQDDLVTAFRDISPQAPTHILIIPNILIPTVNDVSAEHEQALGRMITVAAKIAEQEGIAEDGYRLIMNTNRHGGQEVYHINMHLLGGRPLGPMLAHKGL
Description: pull-down; 5 μg GST or GST-hinT on glutathione agarose, 2 μg AMPylated substrate, 1 h at 4 °C, TBSTX-100 with 1 mM DTT; α-AMP immunoblot; both purified. Background: A western blot detects proteins with antibodies after separation by electrophoresis.

Amino acid sequences for entries named in this document (tags omitted). Residues count along the entry.
UniProt P11021, residues 19-654: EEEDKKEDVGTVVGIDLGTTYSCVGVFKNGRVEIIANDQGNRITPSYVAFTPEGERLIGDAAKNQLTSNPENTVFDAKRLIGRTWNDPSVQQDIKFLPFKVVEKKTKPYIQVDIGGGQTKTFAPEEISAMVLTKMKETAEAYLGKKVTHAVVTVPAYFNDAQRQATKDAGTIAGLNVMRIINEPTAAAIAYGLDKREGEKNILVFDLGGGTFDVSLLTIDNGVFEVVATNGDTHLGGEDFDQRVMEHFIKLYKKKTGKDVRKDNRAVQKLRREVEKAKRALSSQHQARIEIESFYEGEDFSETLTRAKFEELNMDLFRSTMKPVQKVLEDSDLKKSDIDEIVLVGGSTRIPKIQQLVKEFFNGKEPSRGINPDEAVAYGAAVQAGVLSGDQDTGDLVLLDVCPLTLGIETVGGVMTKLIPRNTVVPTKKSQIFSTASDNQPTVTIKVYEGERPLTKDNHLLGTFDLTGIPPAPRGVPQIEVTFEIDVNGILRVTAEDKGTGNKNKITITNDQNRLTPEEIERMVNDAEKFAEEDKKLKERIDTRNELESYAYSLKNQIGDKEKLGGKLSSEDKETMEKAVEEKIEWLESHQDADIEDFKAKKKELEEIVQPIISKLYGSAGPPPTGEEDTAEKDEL

In test [2] the target is T2, GST-tagged E. coli hinT H101N E96S (E. coli) (UniProt P0ACE7).
T2 sequence: T1 sequence with E96S
The test is described as above.

The next test addresses AMPylated BiP (UniProt P11021). Description: far-Western, overlay or dot blot; far western: 0.5 μg/lane of AMPylated and non-AMPylated SodA, Rab1, Rac1 and BiP resolved by SDS-PAGE, membrane probed with 0.06 μg/ml GST-hinT homologs for 1 h at room temperature, detected with α-GST; both purified.
For another test, the target named is T3, AMPylated sodA (UniProt P00448).
T3 sequence (chain, AMPylated on tyrosine, residue not printed): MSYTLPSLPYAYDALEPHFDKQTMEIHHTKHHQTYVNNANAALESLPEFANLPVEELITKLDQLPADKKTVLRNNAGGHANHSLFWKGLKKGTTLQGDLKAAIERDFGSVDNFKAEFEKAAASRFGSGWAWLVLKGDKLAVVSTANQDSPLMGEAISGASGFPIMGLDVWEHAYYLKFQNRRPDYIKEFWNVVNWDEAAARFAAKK
As to the kind of experiment: far-Western, overlay or dot blot; dot blot: 400 ng to 25 ng of AMPylated or non-AMPylated protein spotted on nitrocellulose, probed with GST or GST-hinT at 0.125 μg/mL in TBST for 1 h, detected with α-GST; both purified.

Positions count from the first letter of the chain named. Numbers in names are those of the source. Results are given in words; binding and its absence hold for the method and conditions named. Some binding calls cover weakened binding; strength is not graded here. Where a sequence is shown, tags or fusion partners need not be part of it.

B1: AMPylated sodA (enzyme, UniProt P00448 1-206)
chain: T3 sequence (chain, AMPylated on tyrosine, residue not printed)
modifications: AMPylated on tyrosine, residue not given
As for B1, the binding entry in test [1] and in test [2] was “binds” throughout.

B2: GST-tagged E. coli hinT H101N (enzyme, UniProt P0ACE7 1-119)
chain: T1 sequence
Regarding B2, the binding result with AMPylated BiP is reported as “no binding (tested: 0.06 μg/ml; 0.5 μg/lane)”; in the test with AMPylated sodA it was “binds”.

B3: GST-tagged H. sapiens hinT H112N (enzyme, UniProt P49773 1-126)
chain: MADEIAKAQVARPGGDTIFGKIIRKEIPAKIIFEDDRCLAFHDISPQAPTHFLVIPKKHISQISVAEDDDESLLGHLMIVGKKCAADLGLNKGYRMVVNEGSDGGQSVYHVNLHVLGGRQMHWPPG
On to B3, for which the binding entry in the test with AMPylated BiP was “no binding (tested: 0.06 μg/ml; 0.5 μg/lane)”.

The record behind these values is publication PMC12375108.
